Test results published in patent publication US8293489B2, “Methods for detection of biological substances” (priority 2007, dated 2012).

Assays:
Design in all cases: species or system human
[1] = 96 plate colorimetric ELISA comparison of biological substances in various bodily fluids
endostatin = test: Endostatin in plasma, urine, saliva and nasal mucus
EPO = EPO in plasma, urine, saliva and nasal mucus
GM-CSF = GM-CSF in plasma, urine, saliva and nasal mucus
HGF = HGF in plasma, urine, saliva and nasal mucus
IGF 1 = IGF 1 in saliva and nasal mucus; conditions: (26) subjects
TNFα = TNFα in saliva and nasal mucus; conditions: 75 subjects
TRAIL = TRAIL in saliva and nasal mucus in normal subjects and patients with smell loss
[2] = NASAL MUCUS, PATIENTS (10) with smell loss
[3] = NASAL MUCUS, PATIENTS (65) with Hyposmia
[4] = SALIVA, PATIENTS (10) with smell loss
[5] = SALIVA, PATIENTS (65) with Hyposmia

| Substance | concentration in NASAL MUCUS [1] | concentration in PLASMA [1] | concentration in SALIVA [1] | concentration in URINE [1] | also measured |
| --- | --- | --- | --- | --- | --- |
| Agout Related Protein (SSRRCVRLHESCLGQQVPCCDPCATCYCRFFNAFCYCRKLGTAMNPCSRT; UniProt O00253 83-132, looked up) | 4.0 ± 0.9 pg/mL | 38 ± 3 pg/mL | 6.4 ± 1.1 pg/mL | 147 ± 20 pg/mL |  |
| ENDOSTATIN |  |  |  |  | ENDOSTATIN (endostatin; NASAL MUCUS): 6.6 ± 1.3^a μg/ml; ENDOSTATIN/PROTEIN (endostatin; NASAL MUCUS): 2.0 ± 0.43^a; ENDOSTATIN/PROTEIN (endostatin; PLASMA): 15 ± 1; ENDOSTATIN (endostatin; PLASMA, (15) subjects): 94 ± 10 µg/mL; ENDOSTATIN (endostatin; SALIVA): 1.3 ± 0.3^a μg/ml; ENDOSTATIN/PROTEIN (endostatin; SALIVA): 0.59 ± 0.04^a; ENDOSTATIN (endostatin; URINE): 0.5 ± 0.04^a μg/ml |
| EPO |  |  |  |  | ERYTHROPOETIN (EPO; NASAL MUCUS): 15 ± 5 μIU/ml; ERYTHROPOETIN/PROTEIN (EPO; NASAL MUCUS): 9 ± 2^b; ERYTHROPOETIN/PROTEIN (EPO; PLASMA): 2 ± 0.3; ERYTHROPOETIN (EPO; PLASMA, (27) subjects): 13 ± 2 μIU/ml; ERYTHROPOETIN (EPO; SALIVA): 0 μIU/ml; ERYTHROPOETIN/PROTEIN (EPO; SALIVA): 0; ERYTHROPOETIN (EPO; URINE): 0 μIU/ml; ERYTHROPOETIN/PROTEIN (EPO; URINE): 0 |
| Endothelial Nitric Oxide (ENO) | 0 pg/mL | 0 pg/mL | 0 pg/mL | 0 pg/mL |  |
| Epidermal Growth Factor (EGF) | 7730 ± 103 pg/mL | 52 ± 7 pg/mL | 1332 ± 258 pg/mL | 81157 ± 11254 pg/mL |  |
| Erythroporetin | 7.0 ± 3.7 pg/mL | 13.2 ± 2.0 pg/mL | 0 pg/mL | 0 pg/mL |  |
| FAS Ligand | 4.05 ± 1.9 pg/mL | 63.7 ± 8.1 pg/mL | 0 pg/mL | 0.73 ± 1.6 pg/mL |  |
| Fibroblastic Growth Factor, basic (FGF basic) | 2.81 ± 1.3 pg/mL | 0 pg/mL | 0 pg/mL | 0 pg/mL |  |
| GM-CSF |  |  |  |  | GM-CSF (GM-CSF; NASAL MUCUS): 2.55 ± 0.8 µg/dL; GM-CSF (GM-CSF; PLASMA, (16) subjects): 0.42 ± 0.31 µg/dL; GM-CSF (GM-CSF; SALIVA): 0 µg/dL; GM-CSF (GM-CSF; URINE): 0 µg/dL |
| HGF |  |  |  |  | HGF (HGF; NASAL MUCUS): 2015 ± 431^a μg/ml; HGF/PROTEIN (HGF; NASAL MUCUS): 924 ± 227^a; HGF/PROTEIN (HGF; PLASMA): 100 ± 13; HGF (HGF; PLASMA, (17) subjects): 709 ± 91 µg/mL; HGF (HGF; SALIVA): 0 µg/mL; HGF/PROTEIN (HGF; SALIVA): 0; HGF (HGF; URINE): 623 ± 126 µg/mL |
| IGF 1 |  |  |  |  | IGF 1 (IGF 1; NASAL MUCUS): 13.7 ± 0.4^b μg/ml; IGF 1/PROTEIN (IGF 1; NASAL MUCUS): 8.9 ± 1.0^a; IGF 1 (IGF 1; SALIVA): 11.4 ± 0.5 µg/mL; IGF 1/PROTEIN (IGF 1; SALIVA): 4.6 ± 0.4 |
| Insulin-like Growth Factor (IGF-1) | 4.2 ± 0.6 pg/mL |  | 1.3 ± 0.3 pg/mL |  |  |
| Interferon ω (IFN ω) | 44 ± 11 pg/mL | 38 ± 9 pg/mL | 0 pg/mL | 33 ± 15 pg/mL |  |
| Interleukin 6 (IL-6) | 21.60 ± 12.80 pg/mL | 1.25 ± 0.18 pg/mL | 0.79 ± 0.11 pg/mL | 1.52 ± 0.43 pg/mL |  |
| Interleukin 15 (IL-15) | 21.6 ± 8.9 pg/mL | 0.67 ± 0.12 pg/mL | 0.56 ± 0.21 pg/mL | 0.59 ± 0.36 pg/mL |  |
| Interleukin 17 (IL-17) | 2.06 ± 1.18 pg/mL | 0 pg/mL | 1.80 ± 0.7 pg/mL | 3.49 ± 1.44 pg/mL |  |
| Interleukin 18 (IL-18) | 270 ± 85 pg/mL | 334 ± 52 pg/mL | 106 ± 22 pg/mL | 0 pg/mL |  |
| Leptin | 272 ± 70 pg/mL | 8788 ± 903 pg/mL | 7.1 ± 1.0 pg/mL | 0 pg/mL |  |
| Leukemia Inhibitory Factor (LIF) | 5.2 ± 3.8 pg/mL | 0 pg/mL | 0 pg/mL | 0 pg/mL |  |
| Matrix Metalliproteinase 1 (MMP-1) | 300 ± 100 pg/mL | 800 ± 200 pg/mL | 0 pg/mL | 0 pg/mL |  |
| Platelet Derived Growth Factor-AA (PDGF) | 420 ± 65 pg/mL | 560 ± 166 pg/mL | 673 ± 188 pg/mL | 0 pg/mL |  |
| Receptor for Advanced Glycotion End Product (RAGE) | 0 pg/mL | 935 ± 89 pg/mL | 0 pg/mL | 0 pg/mL |  |
| Stem Cell Factor (SCF) | 33.3 ± 4.6 pg/mL | 846 ± 45 pg/mL |  | 46.4 ± 6.2 pg/mL |  |
| Substance P | 270 ± 74 pg/mL | 250 ± 31 pg/mL | 137 ± 47 pg/mL | 205 ± 27 pg/mL |  |
| TNFα |  |  |  |  | TNFα (TNFα; NASAL MUCUS): 12.8 ± 1.6^a μg/ml; TNFα/PROTEIN (TNFα; NASAL MUCUS): 5.5 ± 1.3^a; TNFα (TNFα; SALIVA): 0.43 ± 0.03 µg/mL; TNFα/PROTEIN (TNFα; SALIVA): 0.15 ± 0.01 |
| TRAIL | 4681 ± 464 pg/mL | 69 ± 17 pg/mL | 685 ± 15 pg/mL | 69 ± 12 pg/mL | TRAIL (TRAIL; NASAL MUCUS, NORMALS (17)): 1639 ± 89 µg/mL; TRAIL/PROTEIN (TRAIL; NASAL MUCUS, NORMALS (17)): 770 ± 35; TRAIL (TRAIL; NASAL MUCUS, NORMALS (28)): 1990 ± 119 µg/mL; TRAIL/PROTEIN (TRAIL; NASAL MUCUS, NORMALS (28)): 7.56 ± 28; TRAIL (TRAIL; [2]): 2584 ± 430 µg/mL; TRAIL/PROTEIN (TRAIL; [2]): 4753 ± 1400; TRAIL (TRAIL; [3]): 4121 ± 54^a μg/ml; TRAIL/PROTEIN (TRAIL; [3]): 3095 ± 591^a; TRAIL (TRAIL; SALIVA, NORMALS (17)): 336 ± 48 µg/mL; TRAIL/PROTEIN (TRAIL; SALIVA, NORMALS (17)): 122 ± 14; TRAIL (TRAIL; SALIVA, NORMALS (28)): 123 ± 6 ^ μg/ml; TRAIL/FLOW RATE (TRAIL; SALIVA, NORMALS (28)): 343 ± 13^; TRAIL (TRAIL; [4]): 353 ± 31^ μg/ml; TRAIL/PROTEIN (TRAIL; [4]): 141 ± 20; TRAIL (TRAIL; [5]): 330 ± 25^a μg/ml; TRAIL/FLOW RATE (TRAIL; [5]): 582 ± 55^a |
| Tissue Inhibitor of Metalloproteinase 1 (TIMP-1) | 4.326e+06 ± 553000 pg/mL | 437000 ± 114000 pg/mL | 215000 ± 62000 pg/mL | 0 pg/mL |  |
| Tumor Growth Factor alpha (TFG-alpha) | 46 ± 8 pg/mL | 0 pg/mL | 0 pg/mL | 0 pg/mL |  |
| Vascular Endothelial Growth Factor - Receptor 2 (VEGF-R2) | 350 ± 149 pg/mL | 5074 ± 258 pg/mL | 99 ± 25 pg/mL | 223 ± 73 pg/mL |  |
| inducible Nitric Oxide Synthase (iNOS) | 19.9 ± 8.0 U/ml | 9.5 ± 3.1 U/ml | 11.9 ± 3.6 U/ml | 15.8 ± 7.6 U/ml |  |

Marks after values point to notes of the source that are not given here.
